Test results reported in PMC12821908.
Results are given in words; binding and its absence hold for the method and conditions named. In cells and extracts the contact can be indirect. Some binding calls cover weakened binding; strength is not graded here.

By UniProt entry, the sequences of proteins in these tests, tags left out.
UniProt O43143: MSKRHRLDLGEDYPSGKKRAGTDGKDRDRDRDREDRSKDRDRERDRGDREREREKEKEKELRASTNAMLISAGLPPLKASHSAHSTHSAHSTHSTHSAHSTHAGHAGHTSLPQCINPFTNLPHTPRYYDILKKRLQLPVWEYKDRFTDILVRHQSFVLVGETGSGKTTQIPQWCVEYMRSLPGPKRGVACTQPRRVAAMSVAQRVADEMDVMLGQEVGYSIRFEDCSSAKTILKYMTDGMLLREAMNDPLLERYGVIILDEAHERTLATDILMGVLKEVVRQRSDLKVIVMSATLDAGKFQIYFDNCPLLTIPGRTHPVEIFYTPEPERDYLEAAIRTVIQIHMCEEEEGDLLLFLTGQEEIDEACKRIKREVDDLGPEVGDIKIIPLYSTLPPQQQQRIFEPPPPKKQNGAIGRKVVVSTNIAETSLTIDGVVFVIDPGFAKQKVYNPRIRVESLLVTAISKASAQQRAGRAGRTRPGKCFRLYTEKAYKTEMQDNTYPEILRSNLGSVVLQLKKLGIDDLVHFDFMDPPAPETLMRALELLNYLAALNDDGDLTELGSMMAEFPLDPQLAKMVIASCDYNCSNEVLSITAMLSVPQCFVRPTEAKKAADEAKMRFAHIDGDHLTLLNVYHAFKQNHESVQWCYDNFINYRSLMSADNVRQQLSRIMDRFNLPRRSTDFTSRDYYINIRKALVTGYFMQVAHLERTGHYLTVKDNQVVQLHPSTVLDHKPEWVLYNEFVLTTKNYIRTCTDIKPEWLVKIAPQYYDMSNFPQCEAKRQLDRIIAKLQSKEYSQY
UniProt Q92769: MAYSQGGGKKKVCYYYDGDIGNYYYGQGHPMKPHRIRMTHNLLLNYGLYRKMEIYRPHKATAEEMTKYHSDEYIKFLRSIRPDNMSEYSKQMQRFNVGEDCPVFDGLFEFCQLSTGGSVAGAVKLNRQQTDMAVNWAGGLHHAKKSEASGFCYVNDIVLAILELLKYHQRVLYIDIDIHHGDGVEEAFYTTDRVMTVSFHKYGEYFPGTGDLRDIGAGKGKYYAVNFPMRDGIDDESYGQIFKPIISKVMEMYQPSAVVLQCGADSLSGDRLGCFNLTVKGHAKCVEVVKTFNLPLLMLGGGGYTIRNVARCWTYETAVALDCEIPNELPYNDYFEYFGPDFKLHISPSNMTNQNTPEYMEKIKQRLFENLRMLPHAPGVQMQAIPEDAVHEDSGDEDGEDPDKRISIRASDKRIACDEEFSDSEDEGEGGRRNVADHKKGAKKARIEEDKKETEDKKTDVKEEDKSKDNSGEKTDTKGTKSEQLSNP

Molecular target: Flag-tagged DExH-box helicase 15 (DHX15) wild-type (UniProt O43143)
Assay: co-IP; UM-UC-3 cells transfected with Flag-DHX15 (alone, or together with HA-HDAC2); lysis in IP buffer (50 mM Tris-HCl pH 7.5, 150 mM NaCl, 1 mM EDTA, 1% Nonidet P-40), antibody overnight at 4 °C, protein A/G agarose beads, five washes, Western blot

| Substance | binding |
| --- | --- |
| HA-tagged HDAC2 (from UniProt Q92769 1-488) (enzyme) | binds |
| endogenous HDAC2 (from UniProt Q92769 1-488) (enzyme) | binds |
